These are yes or no findings as the source states them, for the method shown. In cells and extracts the contact can be indirect. Some results given as binding are weak or reduced against the parent protein; the word gives no strength. Each block holds one binder with its values, some of them ahead of it.
Legend:
[1] = molecular target: GFP-GABARAPL2 (human) (UniProt P60520); experiment: co-IP; GFP-trap precipitation of lysates of HEK293 cells transfected with GFP-tagged constructs (alone or with HA-PCM1 variants); immunoblot for endogenous proteins or HA
[2] = molecular target: GFP-GABARAP (human) (UniProt O95166); experiment: as above

Protein sequences, listed by entry. Tags and fused reporters are not part of them.
UniProt P60520: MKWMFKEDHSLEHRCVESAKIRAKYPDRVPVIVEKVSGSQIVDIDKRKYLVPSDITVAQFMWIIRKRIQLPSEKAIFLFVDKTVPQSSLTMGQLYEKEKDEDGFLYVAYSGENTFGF
UniProt O95166: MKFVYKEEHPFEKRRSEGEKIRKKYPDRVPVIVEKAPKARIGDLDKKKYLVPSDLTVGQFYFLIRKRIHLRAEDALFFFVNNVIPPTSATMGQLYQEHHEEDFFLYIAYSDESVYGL

binding [1]: binds
binding [2]: binds
B1: OFD1, endogenous (protein, UniProt O75665 1-1012)
chain: MMAQSNMFTVADVLSQDELRKKLYQTFKDRGILDTLKTQLRNQLIHELMHPVLSGELQPRSISVEGSSLLIGASNSLVADHLQRCGYEYSLSVFFPESGLAKEKVFTMQDLLQLIKINPTSSLYKSLVSGSDKENQKGFLMHFLKELAEYHQAKESCNMETQTSSTFNRDSLAEKLQLIDDQFADAYPQRIKFESLEIKLNEYKREIEEQLRAEMCQKLKFFKDTEIAKIKMEAKKKYEKELTMFQNDFEKACQAKSEALVLREKSTLERIHKHQEIETKEIYAQRQLLLKDMDLLRGREAELKQRVEAFELNQKLQEEKHKSITEALRRQEQNIKSFEETYDRKLKNELLKYQLELKDDYIIRTNRLIEDERKNKEKAVHLQEELIAINSKKEELNQSVNRVKELELELESVKAQSLAITKQNHMLNEKVKEMSDYSLLKEEKLELLAQNKLLKQQLEESRNENLRLLNRLAQPAPELAVFQKELRKAEKAIVVEHEEFESCRQALHKQLQDEIEHSAQLKAQILGYKASVKSLTTQVADLKLQLKQTQTALENEVYCNPKQSVIDRSVNGLINGNVVPCNGEISGDFLNNPFKQENVLARMVASRITNYPTAWVEGSSPDSDLEFVANTKARVKELQQEAERLEKAFRSYHRRVIKNSAKSPLAAKSPPSLHLLEAFKNITSSSPERHIFGEDRVVSEQPQVGTLEERNDVVEALTGSAASRLRGGTSSRRLSSTPLPKAKRSLESEMYLEGLGRSHIASPSPCPDRMPLPSPTESRHSLSIPPVSSPPEQKVGLYRRQTELQDKSEFSDVDKLAFKDNEEFESSFESAGNMPRQLEMGGLSPAGDMSHVDAAAAAVPLSYQHPSVDQKQIEEQKEEEKIREQQVKERRQREERRQSNLQEVLERERRELEKLYQERKMIEESLKIKIKKELEMENELEMSNQEIKDKSAHSENPLEKYMKIIQQEQDQESADKSSKKMVQEGSLVDTLQSSDKVESLTGFSHEELDDSW

binding [1]: binds
binding [2]: binds
B2: SSX2IP, endogenous (protein, UniProt Q9Y2D8 1-614)
chain: MGDWMTVTDPGLSSESKTISQYTSETKMSPSSLYSQQVLCSSIPLSKNVHSFFSAFCTEDNIEQSISYLDQELTTFGFPSLYEESKGKETKRELNIVAVLNCMNELLVLQRKNLLAQENVETQNLKLGSDMDHLQSCYSKLKEQLETSRREMIGLQERDRQLQCKNRNLHQLLKNEKDEVQKLQNIIASRATQYNHDMKRKEREYNKLKERLHQLVMNKKDKKIAMDILNYVGRADGKRGSWRTGKTEARNEDEMYKILLNDYEYRQKQILMENAELKKVLQQMKKEMISLLSPQKKKPRERVDDSTGTVISDVEEDAGELSRESMWDLSCETVREQLTNSIRKQWRILKSHVEKLDNQVSKVHLEGFNDEDVISRQDHEQETEKLELEIQQCKEMIKTQQQLLQQQLATAYDDDTTSLLRDCYLLEEKERLKEEWSLFKEQKKNFERERRSFTEAAIRLGLERKAFEEERASWLKQQFLNMTTFDHQNSENVKLFSAFSGSSDWDNLIVHSRQPQKKPHSVSNGSPVCMSKLTKSLPASPSTSDFCQTRSCISEHSSINVLNITAEEIKPNQVGGECTNQKWSVASRPGSQEGCYSGCSLSYTNSHVEKDDLP

Source: article PMC6744468
